Measurements reported in the supplement of paper PMC3334620.
Over roughly 33,000 sequences, “E-score (-0.5 to 0.5)” has its median near -8e-05; the highest 2% begin near 0.23. The list shows a part of the results.

Each sequence was assayed against T1, Nrg2 (UniProt P38082) (assay: PBM E-score (8-mer binding enrichment) (E-score (-0.5 to 0.5)); higher = stronger / more preferred TF binding). Conditions: protein concentration: 100 nM; construct: GST-full length.
T1 sequence: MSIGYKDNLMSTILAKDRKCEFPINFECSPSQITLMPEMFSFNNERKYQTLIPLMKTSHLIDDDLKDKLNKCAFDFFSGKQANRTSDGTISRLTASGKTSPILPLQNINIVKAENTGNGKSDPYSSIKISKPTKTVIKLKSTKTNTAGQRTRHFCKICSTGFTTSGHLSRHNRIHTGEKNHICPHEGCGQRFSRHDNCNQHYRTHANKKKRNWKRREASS
Protocol: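 Universal 'all 10-mer' protein binding microarrays (Agilent AMADID 015681) probed with GST-tagged S. cerevisiae TFs (full-length or DBD) made by in vitro transcription/translation (PURExpress), about 100-200 nM. Bound TF was detected with fluorescent anti-GST. Each ungapped 8-mer (which stands for itself and its reverse complement) is scored by the PBM enrichment score (E-score), a modified Wilcoxon-Mann-Whitney statistic from -0.5 to +0.5, computed with the Universal PBM Analysis Suite. Scale: above 0.35 generally sequence-specific binding.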
In the case of CACTCGCG, the “PBM E-score” value is reported as 0.0216. With GAGAAACC the “PBM E-score” value was -0.0126. For CTATCCCA, the “PBM E-score” value was -0.0914. For ACCTATGG, the “PBM E-score” value was 0.0508. For AGTAATTA, the “PBM E-score” value was 0.208. In the case of CCTCCTTA, the “PBM E-score” value is reported as -0.372. AGACGAGG was tested, and the “PBM E-score” value was -0.0855. With TAAACGTA the “PBM E-score” value was 0.0621. For AACTCTTC, the “PBM E-score” value was -0.106. ATCGCGTA was tested, and the “PBM E-score” value was 0.0399. With ATAACGCC the “PBM E-score” value was 0.0631. For ACTGTTCG, the “PBM E-score” value was -0.0364. With ACGTGTGA the “PBM E-score” value was -0.126. In the case of AACCGGTG, the “PBM E-score” value is reported as -0.0857. In the case of GTCGATTA, the “PBM E-score” value is reported as 0.073. For TCACGTAA, the “PBM E-score” value was -0.164. In the case of CGGCCAAA, the “PBM E-score” value is reported as -0.075. CACCGCTA was tested, and the “PBM E-score” value was -0.0122. ATTGTTAA was tested, and the “PBM E-score” value was 0.0152. For CTGTTAAG, the “PBM E-score” value was -0.146. With AACTGTGT the “PBM E-score” value was 0.159. For GCTTGACA, the “PBM E-score” value was -0.0904. With AGCAAGCA the “PBM E-score” value was -0.0877. With GACGCTGA the “PBM E-score” value was -0.0859. With ACGGCCAT the “PBM E-score” value was -0.152. For GCCCCCGC, the “PBM E-score” value was -0.181. GGTTACCA was tested, and the “PBM E-score” value was -0.00207. For CGAGCAAC, the “PBM E-score” value was 0.0789. In the case of TCCATGAA, the “PBM E-score” value is reported as 0.0917. With GTAGCGGA the “PBM E-score” value was 0.101. ATTGGCAA was tested, and the “PBM E-score” value was 0.18. In the case of CTGGTCGC, the “PBM E-score” value is reported as -0.00893. In the case of CGTCGGGA, the “PBM E-score” value is reported as 0.00615. For ATTTCCCG, the “PBM E-score” value was 0.264. For ACGCGGAT, the “PBM E-score” value was 0.0594. In the case of AAAGCGCT, the “PBM E-score” value is reported as 0.217. With ATCACGCA the “PBM E-score” value was -0.0888. With TAGAGGAA the “PBM E-score” value was -0.126. In the case of AGAGTGTA, the “PBM E-score” value is reported as -0.123. AAAGGTCT was tested, and the “PBM E-score” value was -0.161. ATAGAACA was tested, and the “PBM E-score” value was 0.0998. CCTGTTAA was tested, and the “PBM E-score” value was 0.0833. With AGCGGCAG the “PBM E-score” value was -0.121. CCAATCAG was tested, and the “PBM E-score” value was -0.0574. For CGTCACTA, the “PBM E-score” value was 0.165. With ATGTACTA the “PBM E-score” value was 0.155. In the case of ACTAAGGC, the “PBM E-score” value is reported as -0.0854. For ACCTTTAG, the “PBM E-score” value was -0.115. With CCGTGTTA the “PBM E-score” value was -0.0728. For GACAACTC, the “PBM E-score” value was 0.0611. With CCATGGTC the “PBM E-score” value was -0.0857. In the case of ACCCCCTC, the “PBM E-score” value is reported as -0.327. With ATGCAGAG the “PBM E-score” value was -0.127. ATGGCGAA was tested, and the “PBM E-score” value was 0.206. With GGCTGAGA the “PBM E-score” value was -0.0527. For CGTCCTCA, the “PBM E-score” value was -0.109. In the case of AAAAACAA, the “PBM E-score” value is reported as 0.149. In the case of GTACCGAA, the “PBM E-score” value is reported as -0.087. In the case of ACCGTACC, the “PBM E-score” value is reported as -0.0813. In the case of ACGAATTC, the “PBM E-score” value is reported as 0.0229. For CGCACCAA, the “PBM E-score” value was 0.00802. GGGATCGA was tested, and the “PBM E-score” value was -0.00212. For CTGGGAGA, the “PBM E-score” value was 0.0489. For CAGCCCCC, the “PBM E-score” value was -0.351. For AGCTGGGG, the “PBM E-score” value was -0.114. For CCCCCGGC, the “PBM E-score” value was -0.34. With GATCCCGA the “PBM E-score” value was 0.0706. ATATGGAG was tested, and the “PBM E-score” value was 0.147. With AGGTCCCG the “PBM E-score” value was 0.066. GTAAGGCA was tested, and the “PBM E-score” value was -0.0496. For GTCCATCA, the “PBM E-score” value was -0.0118. In the case of CACGGCTG, the “PBM E-score” value is reported as -0.129. For AGTCAATG, the “PBM E-score” value was -0.0552. For CTAAATAG, the “PBM E-score” value was 0.0318. With GATCGGGA the “PBM E-score” value was -0.213. With CCTGTGTC the “PBM E-score” value was -0.0504. For AGGGGAAG, the “PBM E-score” value was -0.114. In the case of CGTAGTAC, the “PBM E-score” value is reported as -0.0916. AGACACTG was tested, and the “PBM E-score” value was 0.0572. With ATCAGCGC the “PBM E-score” value was 0.0517. With GCCTCCGA the “PBM E-score” value was -0.211. For CCGCTCAA, the “PBM E-score” value was 0.0189. CTGCATCA was tested, and the “PBM E-score” value was 0.0772. With CCTACTTC the “PBM E-score” value was 0.00141. AAAGGGGT was tested, and the “PBM E-score” value was 0.16. With AACAACGG the “PBM E-score” value was 0.0609. In the case of ATATACAC, the “PBM E-score” value is reported as 0.081. With CATCGCGA the “PBM E-score” value was 0.127. In the case of CGGCACCC, the “PBM E-score” value is reported as -0.0943. In the case of CCGGTCAA, the “PBM E-score” value is reported as -0.0451. For CAAGACTC, the “PBM E-score” value was -0.0308. In the case of AGCTCAAA, the “PBM E-score” value is reported as 0.0621. With ATAAGGCG the “PBM E-score” value was 0.0285. In the case of GGAGGAAC, the “PBM E-score” value is reported as -0.218. For CGGTCAAA, the “PBM E-score” value was 0.0235. With AGGCTTGA the “PBM E-score” value was 0.00845. For ATCTCAAG, the “PBM E-score” value was 0.238. With CGACGTGA the “PBM E-score” value was -0.0428. For ATAGTTGC, the “PBM E-score” value was 0.19. With CAGGTGGC the “PBM E-score” value was -0.146. In the case of CGACCTCC, the “PBM E-score” value is reported as -0.0729. In the case of TACAGAAA, the “PBM E-score” value is reported as 0.222. With CGTAGTCA the “PBM E-score” value was -0.095. With ACCAGCCG the “PBM E-score” value was -0.148. ACTTGAAT was tested, and the “PBM E-score” value was 0.0658. With GAGGATAC the “PBM E-score” value was -0.195. In the case of CCAGTTCA, the “PBM E-score” value is reported as 0.00629. With AATCATTA the “PBM E-score” value was 0.0429. With CCTCAGTA the “PBM E-score” value was -0.0944. With GAATATAA the “PBM E-score” value was 0.12. CTCGGGTC was tested, and the “PBM E-score” value was 0.157. For AGGAGGCC, the “PBM E-score” value was -0.305. In the case of CGGTAATA, the “PBM E-score” value is reported as 0.0466. For GATACTAC, the “PBM E-score” value was 0.13. ATAGCTTC was tested, and the “PBM E-score” value was -0.176. For AGTAACCC, the “PBM E-score” value was 0.0575. TTACGAAA was tested, and the “PBM E-score” value was 0.0467. In the case of AAGCCATT, the “PBM E-score” value is reported as -0.119. In the case of AACTATTG, the “PBM E-score” value is reported as 0.171. In the case of CCCAAAGC, the “PBM E-score” value is reported as -0.151. In the case of AGTGACAA, the “PBM E-score” value is reported as 0.0848. CCTCTCCG was tested, and the “PBM E-score” value was -0.294. For TCACGACA, the “PBM E-score” value was -0.0775. In the case of ACGACTCG, the “PBM E-score” value is reported as -0.0701. In the case of AGTAGGCA, the “PBM E-score” value is reported as 0.0959. With AGATGAGG the “PBM E-score” value was -0.0818. GAAACCTC was tested, and the “PBM E-score” value was -0.0382. In the case of AGGAGTGC, the “PBM E-score” value is reported as -0.111. ACAGAAAC was tested, and the “PBM E-score” value was 0.227. CGTATCTA was tested, and the “PBM E-score” value was 0.0447. With CAGGTAAC the “PBM E-score” value was -0.131. For CGATATCG, the “PBM E-score” value was 0.0284. With CCCTCAAC the “PBM E-score” value was -0.135. With CCATGTAG the “PBM E-score” value was 0.118. For AGCTCTCG, the “PBM E-score” value was -0.129. For ATCTGACA, the “PBM E-score” value was -0.108. In the case of AATGCCCT, the “PBM E-score” value is reported as -0.11. In the case of AAGAAAGA, the “PBM E-score” value is reported as 0.134. For ACGGTCGG, the “PBM E-score” value was 0.00627. For TGATCGCA, the “PBM E-score” value was -0.156. For GGTGCCGA, the “PBM E-score” value was 0.0518. CTAGAAAC was tested, and the “PBM E-score” value was -0.111. With GCAGATCC the “PBM E-score” value was 0.034. With CCACATTC the “PBM E-score” value was 0.0344. AGGGGGCC was tested, and the “PBM E-score” value was -0.189. CATTAGCA was tested, and the “PBM E-score” value was -0.0698. In the case of CTTTCCGC, the “PBM E-score” value is reported as 0.00442. In the case of AGGTGACT, the “PBM E-score” value is reported as -0.0863. For TGACCTAA, the “PBM E-score” value was 0.128. In the case of CCAGTCGG, the “PBM E-score” value is reported as -0.166. For GATAGACA, the “PBM E-score” value was -0.0372. With ATCCTGTG the “PBM E-score” value was -0.11. In the case of ATTAGTAC, the “PBM E-score” value is reported as 0.14. With AAGTATGG the “PBM E-score” value was 0.121. With AATAATTA the “PBM E-score” value was 0.286. In the case of ATGGGCGG, the “PBM E-score” value is reported as 0.00956. With CTAAGATC the “PBM E-score” value was 0.0543. With GCGTCCGA the “PBM E-score” value was -0.0847. For GGTAGGTA, the “PBM E-score” value was -0.0984. In the case of CCCAATAG, the “PBM E-score” value is reported as 0.00098. With AGCGTTTC the “PBM E-score” value was -0.195. For AGCCTTTG, the “PBM E-score” value was -0.186. With AACGGAAT the “PBM E-score” value was 0.136. ACAGCCGA was tested, and the “PBM E-score” value was -0.0907. In the case of GAATGTAA, the “PBM E-score” value is reported as 0.159. For CGCGCTAA, the “PBM E-score” value was 0.259. In the case of CGAGCACA, the “PBM E-score” value is reported as 0.155. GCCCGGCC was tested, and the “PBM E-score” value was -0.291. In the case of ATTCCAAC, the “PBM E-score” value is reported as 0.0418. AGCCGGAA was tested, and the “PBM E-score” value was 0.225. GCCAACCA was tested, and the “PBM E-score” value was -0.122. For CGTGCGTA, the “PBM E-score” value was 0.0283.
